# Reference: publication PMC5996148
# Amino acid sequences for entries named in this document (tags omitted).
# UniProt Q9GZZ9, whole entry: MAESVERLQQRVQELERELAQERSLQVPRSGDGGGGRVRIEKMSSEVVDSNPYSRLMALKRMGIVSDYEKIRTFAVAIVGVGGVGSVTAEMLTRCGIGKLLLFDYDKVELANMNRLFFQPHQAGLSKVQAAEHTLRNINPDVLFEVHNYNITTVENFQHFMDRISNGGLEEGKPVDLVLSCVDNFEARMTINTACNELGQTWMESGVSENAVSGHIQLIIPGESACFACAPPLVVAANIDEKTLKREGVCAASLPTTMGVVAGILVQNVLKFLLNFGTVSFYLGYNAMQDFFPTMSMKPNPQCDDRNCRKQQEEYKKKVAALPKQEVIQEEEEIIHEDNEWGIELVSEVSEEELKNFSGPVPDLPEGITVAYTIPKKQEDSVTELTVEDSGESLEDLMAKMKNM
# Values joined by “and” are separate entries in the source; they are usually repeats but may differ in a detail not shown here. Identical values can stand only once. The list shows a part of the results. For some assays here: The exact form of the protein is not confirmed.
# Columns and labels:
# Assay in all cases: protein microarray (ProtoArray v5.0), streptavidin-Alexa Fluor 647
# Conditions in all cases: 3'-biotin; 20 mM Tris (pH 7.5), 5 mM MgCl2, 100 mM KCl, 0.1% Tween-20, A/T-rich and random oligonucleotide blockers; temperature not stated; high values mean tight binding
# [1] = system: Thymosin beta-4, Y-chromosomal (human)
# [2] = system: Thyroid receptor-interacting protein 11 (human)
# Transaldolase (human) = system: Transaldolase (human)
# [3] = system: Transcription initiation factor TFIID subunit 8 (human)
# [4] = system: Transmembrane 4 L6 family member 1 (human)
# [5] = system: Transmembrane protein 107 (human)
# [6] = system: Transmembrane protein 156 (human)
# [7] = system: Transmembrane protein 203 (human)
# [8] = system: Transmembrane protein 207 (human)
# [9] = system: Transmembrane protein 43 (human)
# [10] = system: Transmembrane protein 86B (human)
# Trypsin-2 (human) = system: Trypsin-2 (human)
# [11] = system: Tubulin-specific chaperone D (human)
# [12] = system: Tumor protein D52 (human)
# [13] = system: Tumor protein D53 (human)
# UBADC1 (human) = system: UBADC1 (human)
# UBE1DC1 = UBE1DC1 (UniProt Q9GZZ9)
# UBE2C (human) = system: UBE2C (human)
# UBE2DNL (human) = system: UBE2DNL (human)
# UBE2L6 (human) = system: UBE2L6 (human)
sequence,measurement,setting,value
GGGGACAGGGGTATGGGGAGGGG [G4-3 biotinylated (CtG)],binding signal,[1],-0.337 z-score
same,binding signal,[2],-0.325 z-score
same,binding signal,Transaldolase (human),-0.335 z-score
same,binding signal,[3],-0.333 z-score
same,binding signal,[4],-0.295 z-score
same,binding signal,[5],-0.314 z-score
same,binding signal,[6],-0.336 z-score
same,binding signal,[7],-0.328 z-score
same,binding signal,[8],-0.31 z-score
same,binding signal,[9],-0.324 z-score
same,binding signal,[10],-0.322 z-score
same,binding signal,Trypsin-2 (human),-0.331 z-score
same,binding signal,[11],-0.322 z-score
same,binding signal,[12],-0.322 z-score
same,binding signal,[13],-0.316 z-score
same,binding signal,UBADC1 (human),-0.334 z-score
same,binding signal,UBE1DC1,-0.316 z-score
same,binding signal,UBE2C (human),-0.349 z-score and -0.341 z-score
same,binding signal,UBE2DNL (human),-0.314 z-score
same,binding signal,UBE2L6 (human),-0.331 z-score
